For assay [1], the target named is T1, human CMP-sialic acid transporter (human CST) (human), P78382.
T1 chain: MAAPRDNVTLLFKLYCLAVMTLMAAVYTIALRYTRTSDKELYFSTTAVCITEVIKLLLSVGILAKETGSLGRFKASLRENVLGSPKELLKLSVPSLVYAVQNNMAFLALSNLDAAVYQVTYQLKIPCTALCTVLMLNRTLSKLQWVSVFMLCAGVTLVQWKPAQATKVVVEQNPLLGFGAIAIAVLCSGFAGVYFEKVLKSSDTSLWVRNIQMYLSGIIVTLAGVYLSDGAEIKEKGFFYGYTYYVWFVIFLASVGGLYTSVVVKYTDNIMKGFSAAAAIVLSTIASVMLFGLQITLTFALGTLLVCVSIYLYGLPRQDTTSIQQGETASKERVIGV
Kind of assay: cross-linking; DSS or BS3 in increasing amounts added to 1 mg/ml purified hCST in Buffer A (50 mM HEPES pH 7.5, 150 mM NaCl, 0.1% DDM), 30 min at room temperature, quenched with Tris; 12% SDS-PAGE, Coomassie; both purified. The conditions noted are these: remark: other sources report otherwise.

Assay [2] concerns the target T1, human CMP-sialic acid transporter …. Kind of assay: SEC-MALS; SEC-UV/LS/RI, 'three detector' method; 250 ul purified hCST at 0.8 mg/ml on Superdex 200 in Buffer B (25 mM HEPES pH 7.5, 150 mM NaCl, 0.1% DDM, 5 mM DTT, 1 mM EDTA); protein-only mass 38 kDa against 37 kDa theoretical; both purified. The conditions noted are these: remark: other sources report otherwise.

Results are given in words; binding and its absence hold for the method and conditions named.

B1: human CMP-sialic acid transporter (human CST), P78382 1-337 (protein)
chain: T1 chain
Take B1: the values for the binding entry in assay [1] and in assay [2] were “no binding (tested: 1 mg/ml)” and “no binding (tested: 0.8 mg/ml)”, respectively.

Values taken from article PMC6508934, “Structural basis for mammalian nucleotide sugar transport” (eLife, 2019).
